Experimental data published in PubChem BioAssay AID2685 (National Center for Advancing Translational Sciences (NCATS), 2010).
The list shows a part of the results. Shown are side measurements of this screen, not its main read-out; they come without a call. Most of these compounds were active or inconclusive in the main read-out, so they are no random draw. Words in brackets tell the shape of the fitted curve; partial curves, single points and poor fits give uncertain potencies.

Experiment: qHTS Assay for Lipid Storage Modulators in Drosophila S3 Cells;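 on cell number change: cells counted by Cell Tracker Red CMTPX staining in the red channel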
Details: BODIPY lipid droplet fluorescence, 18-24 h; for cell number change: measured here: cell count max response, cells fed with added oleic acid
Summary of the method: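 Laser-scanning cytometry quantifies lipid droplet accumulation (500–530 nm total intensity; droplet/cell object ratio) in oleic acid-fed (400 uM added) Drosophila S3 cells treated with a concentration series. 20 uM Triacsin C defined 100% inhibition.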

[1] = measured here: lipid fluorescence (Fed channel) AC50, cells fed with added oleic acid
[2] = measured here: cell number channel AC50, cells fed with added oleic acid

Row | Compound | cell number change [%] | AC50 [1] | AC50 [2]
1 | CCCCN(C)CCN1C(=O)C2C(C(=O)Nc3cccc(OC)c3)C3C=CC2(O3)C1C(=O)NC1CCCCC1C (stereo unspecified) | -0.901 | 11.6 µM [falling, single point] | 
2 | CCC1Oc2ccc(C)cc2N(CC(=O)NCCCN2CCCCC2CC)C1=O (stereo unspecified) | -28.6 | 0.411 µM [falling, full curve] | 
3 | Cn1c(=O)c2c(=O)cc(N)[nH]c2n(C)c1=O | -44.6 | 9.2 µM [falling, partial curve] | 23.1 µM [falling, partial curve, poor fit]
4 | CC(C)CC(=O)NC(=S)Nc1ccc(NC(=O)c2ccco2)cc1 | 12.9 |  | 1.64 µM [rising, partial curve, poor fit]
5 | CC1CN(C(=O)c2c([N+](=O)[O-])cnn2C)CC(C)O1 (stereo unspecified) | -43.6 | 6.51 µM [falling, single point] | 0.461 µM [falling, full curve]
6 | COc1ccc(OC)c(NC(=S)NCc2ccc(S(N)(=O)=O)cc2)c1 | 18.6 |  | 
7 | c1ccc2c(c1)NCC1CCCN21 (stereo unspecified) |  | 29.1 µM [falling, single point] | 6.51 µM [rising, single point]
8 | Cc1cc(C)c2nc(N3CCCC3)c(C#N)cc2c1 |  | 0.517 µM [falling, full curve, poor fit] | 6.51 µM [rising, single point]
9 | O=C(Cc1ccsc1)Nc1ccc(S(=O)(=O)C(F)F)cc1 | -22.7 |  | 
10 | Cc1ccc(S(=O)(=O)N2CCOCC2)cc1C(=O)Nc1ccc2c(c1)CCC2 | -7.06 | 0.82 µM [falling, full curve, poor fit] | 
11 | Cc1ccc(NC(=O)Nc2ncccc2C)cc1 | -11.4 | 2.59 µM [rising, single point] | 
12 | CCOc1cc(C2C(C(=O)c3ccco3)=C(O)C(=O)N2Cc2ccccc2)ccc1O (stereo unspecified) | -5.13 | 0.116 µM [rising, single point] | 
13 | COc1ccc(NC(=S)Nc2ccc(OC)cc2OC)c(OC)c1 | -66.7 | 10.3 µM [rising, single point] | 0.146 µM [falling, partial curve, poor fit]
14 | CC(C)CCNC(=O)c1cc2c(=O)n3ccccc3nc2s1 | -36.9 |  | 29.1 µM [falling, single point]
15 | CCOc1ccc(S(=O)(=O)Nc2cccc(C(=O)N3CC(C)OC(C)C3)c2)cc1 (stereo unspecified) | -15.4 | 0.146 µM [falling, full curve, poor fit] | 
16 | Cc1ccc2[nH]c3c(NCCCN4CCCC4=O)ncnc3c2c1 |  | 3.26 µM [rising, full curve] | 3.66 µM [rising, single point]
17 | CC12CCC(c3c(C(=O)Nc4nccs4)nn(-c4ccccc4)c31)C2(C)C (stereo unspecified) | -17.1 | 1.64 µM [rising, full curve] | 
18 | Cc1nnc2sc(-c3csc4c3CCCC4)nn12 | 79.9 | 6.51 µM [falling, partial curve, poor fit] | 
19 | Cc1cc(C)c2c(=O)[nH]c(SCC(=O)NCc3ccccc3)nc2n1 |  | 29.1 µM [rising, single point] | 
20 | CC(c1ccccc1)C1CC(=O)N(CC(=O)O)C1=O (stereo unspecified) | -23.3 | 4.11 µM [falling, full curve] | 
21 | O=C(Cc1ccccc1)Nc1ccc(NC(=O)Cc2ccccc2)c(Cl)c1 | 15.5 | 29.1 µM [rising, single point] | 

Row | Compound | cell number change [%] | AC50 [1] | AC50 [2]
22 | COC(=O)c1[nH]c2ccc(C)cc2c1NC(=O)CN1CCC(C)CC1 | 199 | 0.731 µM [rising, single point] | 20.6 µM [rising, single point]
23 | CCc1ccc(NC2=NCC(=O)N2c2ccc3c(c2)OCCO3)cc1 | 32.7 |  | 
24 | Cc1ccc(S(=O)(=O)N(C)CC(=O)OCC(=O)NC(=O)NC(C)C)cc1 | 12 | 0.103 µM [rising, full curve, poor fit] | 
25 | O=C(CCNS(=O)(=O)c1ccc(Br)cc1)Nc1cccc(F)c1 | -20 | 29.1 µM [falling, single point] | 0.731 µM [falling, full curve, poor fit]
26 | CC(=O)Nc1ccc(C(=O)N/C(=C/c2ccccc2)C(=O)NCc2ccco2)cc1 | -3.63 | 6.51 µM [falling, single point] | 
27 | CCOc1ccc(NC(=O)CN2CCc3cc4c(cc3C2)OCCCO4)cc1OCC | -7.41 |  | 
28 | CC(=O)Nc1ccc(S(=O)(=O)Nc2nc3ccccc3nc2Nc2ccc(N)cc2)cc1 | 7.5 | 10.3 µM [rising, single point] | 
29 | O=C(O)C1=CC[C@@H](c2ccc(Cl)cc2)N(S(=O)(=O)c2ccc(Cl)cc2)[C@H]1c1ccccc1 | 7.06 | 2.31 µM [rising, partial curve] | 
30 | CCOC(=O)C1=C(C)NC(=O)NC1c1cn(-c2ccccc2)nc1-c1cccs1 (stereo unspecified) | -28.3 |  | 
31 | CN(C)CCN(C(=O)C1CCCCC1)c1nc2cc3c(cc2s1)OCO3 | 3.76 |  | 
32 | COc1ccc(C2C3=C(N=C4SCC(=O)N42)c2ccccc2CC3)cc1 (stereo unspecified) |  | 20.6 µM [falling, single point] | 
33 | COc1ccccc1-c1nn2c(=O)cc(C)nc2s1 |  | 1.46 µM [rising, partial curve] | 2.06 µM [rising, partial curve]
34 | Cc1cc(C)nc(Nc2ncc(O)n2-c2ccc(C)c(Cl)c2)n1 | 78.3 |  | 0.731 µM [rising, partial curve]
35 | Cc1nc2cc(-c3ccc(Cl)cc3)nn2c(C)c1CCC(=O)NCc1ccco1 | 23 | 29.1 µM [rising, single point] | 
36 | COc1cccc(-c2nnn(CC(=O)N3CCC(C)CC3)n2)c1 | 6.32 | 29.1 µM [rising, single point] | 
37 | CC1CCCN(C(=O)COC(=O)c2ccc[nH]c2=O)C1 (stereo unspecified) | -37.8 | 3.26 µM [falling, full curve] | 0.0461 µM [falling, full curve]
38 | COc1ccccc1NC(=O)CSc1ccc2nnc(-c3ccc(C)cc3)n2n1 | -12 | 4.11 µM [falling, single point] | 
39 | CC(C)[C@H](NS(=O)(=O)c1ccccc1)C(=O)OCC(=O)Nc1ccccc1Sc1ccccc1 | -14.2 | 29.1 µM [falling, single point] | 
40 | CCCN1C(=O)C(O)(C2CC(=O)CC(C)(C)O2)c2ccccc21 (stereo unspecified) | -0.312 |  | 
41 | CCOC(=O)C1=C(COc2ccccc2)NC(=O)NC1c1ccc(Br)cc1 (stereo unspecified) | -24.3 |  | 
42 | CN(Cc1ccccc1)C(=O)c1ccc(NC(=O)Cc2cccc(NC(=O)C3CCCN(C(=O)C4CCCC4)C3)c2)cc1 (stereo unspecified) | -27.9 | 13 µM [falling, partial curve, poor fit] | 

Sorted by count of non-hydrogen atoms (falling): part of the list above
Row | Compound | cell number change [%] | AC50 [1] | AC50 [2]
28 | CC(=O)Nc1ccc(S(=O)(=O)Nc2nc3ccccc3nc2Nc2ccc(N)cc2)cc1 | 7.5 | 10.3 µM [rising, single point] | 
27 | CCOc1ccc(NC(=O)CN2CCc3cc4c(cc3C2)OCCCO4)cc1OCC | -7.41 |  | 
26 | CC(=O)Nc1ccc(C(=O)N/C(=C/c2ccccc2)C(=O)NCc2ccco2)cc1 | -3.63 | 6.51 µM [falling, single point] | 
30 | CCOC(=O)C1=C(C)NC(=O)NC1c1cn(-c2ccccc2)nc1-c1cccs1 (stereo unspecified) | -28.3 |  | 
10 | Cc1ccc(S(=O)(=O)N2CCOCC2)cc1C(=O)Nc1ccc2c(c1)CCC2 | -7.06 | 0.82 µM [falling, full curve, poor fit] | 
41 | CCOC(=O)C1=C(COc2ccccc2)NC(=O)NC1c1ccc(Br)cc1 (stereo unspecified) | -24.3 |  | 
31 | CN(C)CCN(C(=O)C1CCCCC1)c1nc2cc3c(cc2s1)OCO3 | 3.76 |  | 
4 | CC(C)CC(=O)NC(=S)Nc1ccc(NC(=O)c2ccco2)cc1 | 12.9 |  | 1.64 µM [rising, partial curve, poor fit]
36 | COc1cccc(-c2nnn(CC(=O)N3CCC(C)CC3)n2)c1 | 6.32 | 29.1 µM [rising, single point] | 
14 | CC(C)CCNC(=O)c1cc2c(=O)n3ccccc3nc2s1 | -36.9 |  | 29.1 µM [falling, single point]
5 | CC1CN(C(=O)c2c([N+](=O)[O-])cnn2C)CC(C)O1 (stereo unspecified) | -43.6 | 6.51 µM [falling, single point] | 0.461 µM [falling, full curve]
18 | Cc1nnc2sc(-c3csc4c3CCCC4)nn12 | 79.9 | 6.51 µM [falling, partial curve, poor fit] | 

Later entries:

Row | Compound | cell number change [%] | AC50 [1] | AC50 [2]
43 | CCc1noc(C)c1C(=O)NNC(=O)c1ccccc1Cl | -14.7 | 0.58 µM [falling, full curve, poor fit] | 
44 | CCN(CC)CCCn1c2c(c(SCC(=O)Nc3ccccc3Cl)nc1=O)CCC2 | -25 | 0.13 µM [rising, full curve, poor fit] | 5.17 µM [rising, partial curve]
45 | CNC(=S)N1CCn2cccc2C1c1ccc(F)cc1 (stereo unspecified) | 19.5 | 4.61 µM [rising, single point] | 
46 | CCCC1OC23CCCCC2C(C#N)(C(=N)O3)C1(C#N)C#N (stereo unspecified) | -10.8 | 2.59 µM [rising, partial curve] | 1.46 µM [rising, partial curve]
47 | CC(C)(C)NS(=O)(=O)c1ccc(NS(=O)(=O)Cc2ccccc2)cc1 | 46.4 |  | 10.3 µM [rising, partial curve]
48 | Cc1cc(C)n2cc(CSc3ncn[nH]3)nc2n1 | -19.4 |  | 
49 | NC(=O)C1CCN(C(=O)CCc2nc3ccccc3c(=O)[nH]2)CC1 | -6.39 |  | 2.91 µM [rising, single point]
50 | CCn1c(SCC(=O)Nc2cc(C)on2)nnc1-c1cccs1 |  |  | 0.0731 µM [falling, full curve, poor fit]
51 | CCCC(c1nnnn1C(C)(C)C)N1CCN(c2ccccc2)CC1 (stereo unspecified) | 13.8 | 2.91 µM [falling, single point] | 
52 | CCOc1cc(/C=C/c2cc(C(=O)O)c3ccccc3n2)ccc1O | -4.39 | 4.11 µM [rising, full curve, poor fit] | 
53 | Cc1cc(Br)ccc1OCC(=O)NNC(=O)c1cnccn1 | -41 | 3.26 µM [rising, full curve, poor fit] | 16.4 µM [falling, single point]
54 | Cc1onc(-c2c(F)cccc2Cl)c1C(=O)NCc1ccco1 | -1.19 | 2.91 µM [falling, single point] | 
55 | COc1ccc(/C=C(/CC(=O)NCc2ccc(Cl)cc2)c2nc3ccccc3s2)cc1 | -22.9 | 29.1 µM [falling, single point] | 
56 | CC(C)(C)c1ccc(-c2nnc3sc(-c4ccccn4)nn23)cc1 | 11.1 |  | 
57 | O=C1C2C3C=CC(C3)C2C(=O)N1CNc1ccccn1 (stereo unspecified) | -11.9 | 0.731 µM [falling, single point] | 
58 | COc1cc(S(=O)(=O)NC(Cc2c[nH]c3ccccc23)C(=O)O)ccc1NC(C)=O (stereo unspecified) | 19.2 | 5.17 µM [falling, single point] | 
59 | CCCCn1[nH]c(-c2ccccc2)cc1=O | 53.6 |  | 18.4 µM [rising, single point]
60 | CC1CCCCC1NC(=O)C1CC=CCC1C(=O)O (stereo unspecified) | -1.25 |  | 
61 | Cc1[nH]n(C(N)=S)c(=O)c1N=Nc1ccc(S(=O)(=O)N2CCCCCC2)cc1 |  | 3.26 µM [rising, single point] | 
